PubChem BioAssay AID1259254 – NCATS – 2017
Aim: 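Gene knock-downs that lead to re-replication, shown by excess G2 DNA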 (primary screen). Cell system: human HCT116 colorectal cancer cells. Reagents: single siRNA against human genes. Duration: 3 days. Measurement: 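Imaged Hoechst DNA stain sorts each cell into a cycle phase by DNA amount; per plate, G2 fraction set to 0% for non-targeting and 100% for GMNN siRNA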. Scale: G2 robust z-score: higher = more G2 cells, more excess DNA replication. Rule for the call: 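Active siRNAs have a G2 robust z of 5 or more median absolute deviations over the median, which in these data means about 38% or higher of GMNN control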.
Shown is an unselected part of about 59,000 reagents tested. About 1,550 of them (2.6%) were called active. 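G2 share is only a proxy for re-replication; each gene was hit by three separate siRNAs, and active genes were retested.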 A number with no mark means an inactive call. The numbers tell different reagents against one gene apart. Further read-outs or replicates are left out here. Not stated in the record: the amount of reagent.

With PTTG2 (pituitary tumor-transforming 2) #1, what was measured?
G2 robust z-score: -0.196

For PTTG2 (pituitary tumor-transforming 2) #2, what does the deposit list?
G2 robust z-score: 0.609

Which result is listed for PTTG2 (pituitary tumor-transforming 2) #3?
G2 robust z-score: -0.0514

Which result is listed for TRIM72 (tripartite motif containing 72) #1?
G2 robust z-score: -0.664

For TRIM72 (tripartite motif containing 72) #2, how do the results read?
G2 robust z-score: -0.291

How did the screen score TRIM72 (tripartite motif containing 72) #3?
G2 robust z-score: -0.626

What did the screen give for VTI1B (vesicle transport through interaction with t-SNAREs 1B) #1?
G2 robust z-score: -0.461

How did the screen score VTI1B (vesicle transport through interaction with t-SNAREs 1B) #2?
G2 robust z-score: -0.745

For VTI1B (vesicle transport through interaction with t-SNAREs 1B) #3, what was measured?
G2 robust z-score: -0.445

With PRKAR1B (protein kinase cAMP-dependent type I regulatory subunit beta) #1, how do the results read?
G2 robust z-score: -0.572

What did the screen give for PRKAR1B (protein kinase cAMP-dependent type I regulatory subunit beta) #2?
G2 robust z-score: 0.237

With PRKAR1B (protein kinase cAMP-dependent type I regulatory subunit beta) #3, what was measured?
G2 robust z-score: -0.951

For KLF1 (KLF transcription factor 1) #1, how do the results read?
G2 robust z-score: -0.297

What is on record for KLF1 (KLF transcription factor 1) #2?
G2 robust z-score: -0.386

What did the screen give for KLF1 (KLF transcription factor 1) #3?
G2 robust z-score: -0.134

For TBC1D1 (TBC1 domain family member 1) #1, what was measured?
G2 robust z-score: 0.368

For TBC1D1 (TBC1 domain family member 1) #2, how do the results read?
G2 robust z-score: 0.33

How did the screen score TBC1D1 (TBC1 domain family member 1) #3?
G2 robust z-score: -1.11

How did the screen score TBL1Y (transducin beta like 1 Y-linked) #1?
G2 robust z-score: -0.673

For TBL1Y (transducin beta like 1 Y-linked) #2, what does the deposit list?
G2 robust z-score: 0.739

For TBL1Y (transducin beta like 1 Y-linked) #3, what was measured?
G2 robust z-score: 0.239

With ROR2 (ROR family WNT receptor 2) #1, how do the results read?
G2 robust z-score: -1.18

How did the screen score ROR2 (ROR family WNT receptor 2) #2?
G2 robust z-score: -1.36

With ROR2 (ROR family WNT receptor 2) #3, what does the deposit list?
G2 robust z-score: -0.628

3 neighbouring records already listed, for reference:
TBL1Y (transducin beta like 1 Y-linked) #3 → G2 robust z-score: 0.239
ROR2 (ROR family WNT receptor 2) #1 → G2 robust z-score: -1.18
ROR2 (ROR family WNT receptor 2) #2 → G2 robust z-score: -1.36
